{"source": "the supplement of paper PMC5949888", "note": "Most values lie at the floor of the assay. Slopes are relative: functional sequences can read slightly below zero.", "data": [{"system": "Saccharomyces cerevisiae PS128 hsf1 delta, HSF1(1-493) fusion", "experiment": "growth estimate (transactivation domain function in HSF1 fusion, heat-shock survival) (a.u. (slope of normalised read count over time)); higher = stronger growth at 37°C, i.e. more transactivation activity", "conditions": "library: random library", "values": [{"substance": "MRGAAAEEMGSSVEKLEKWV", "growth estimate": "< -0.25"}, {"substance": "NGTSF", "growth estimate": "< -0.25"}, {"substance": "GMRLRYHIHSLFDSNRTTGL", "growth estimate": "< -0.25"}, {"substance": "SAQASKLP", "growth estimate": "< -0.25"}, {"substance": "DQEFDLARVLGDLASSPLER", "growth estimate": "< -0.25"}, {"substance": "HLKSVPGVTDVSI", "growth estimate": "< -0.25"}, {"substance": "LCEVGSHG", "growth estimate": -0.243}, {"substance": "NAGRS", "growth estimate": "< -0.25"}, {"substance": "VSSY", "growth estimate": "< -0.25"}, {"substance": "KKCSVMCRGLSRK", "growth estimate": "< -0.25"}, {"substance": "CLLNEKAQFK", "growth estimate": "< -0.25"}, {"substance": "GFARRTPCNHCPNCISSSKR", "growth estimate": "< -0.25"}, {"substance": "LVTCGDMLCVQVQ", "growth estimate": "< -0.25"}, {"substance": "VRAVRAFMVRPIVRRTSLCS", "growth estimate": "< -0.25"}, {"substance": "TLLHPISTEAAH", "growth estimate": "< -0.25"}, {"substance": "REGAR", "growth estimate": "< -0.25"}, {"substance": "RDISTTTGSNVHRGVRWVRK", "growth estimate": "< -0.25"}, {"substance": "YLAESLFFQPENSSGTLRAS", "growth estimate": "< -0.25"}, {"substance": "RLTNVLWSNPNLIVLRIL", "growth estimate": "< -0.25"}, {"substance": "IRRI", "growth estimate": "< -0.25"}, {"substance": "SNSFSYQDGSLNPGTLDSNG", "growth estimate": "< -0.25"}, {"substance": "RWREEVWRRL", "growth estimate": "< -0.25"}, {"substance": "YALW", "growth estimate": "< -0.25"}, {"substance": "PFLG", "growth estimate": "< -0.25"}, {"substance": "TWGVPVNRRRSAFSRLATTI", "growth estimate": "< -0.25"}, {"substance": "FISCGPRVNKHRNGRRPPFG", "growth estimate": "< -0.25"}, {"substance": "RIAHGQAASCRGQA", "growth estimate": "< -0.25"}, {"substance": "AGCVSPQGE", "growth estimate": "< -0.25"}, {"substance": "YSVIWQVFAARVRVYVG", "growth estimate": "< -0.25"}, {"substance": "VRGLCCGTPRSLSVNPGSGV", "growth estimate": "< -0.25"}, {"substance": "ISGVSTEAEKCFIHVNPYGT", "growth estimate": "< -0.25"}, {"substance": "VVGVEKQTRCSGWSC", "growth estimate": "< -0.25"}, {"substance": "ARAPDYPDQVDRT", "growth estimate": "< -0.25"}, {"substance": "HSDLGYLNCVLLSKVKEGLH", "growth estimate": "< -0.25"}, {"substance": "EIHGHEAYPRVSPFYFWPWS", "growth estimate": "< -0.25"}, {"substance": "EKFRIETVGGSQRFALFPAD", "growth estimate": "< -0.25"}, {"substance": "TLDPVVFGPGKGQRVSLPKA", "growth estimate": "< -0.25"}, {"substance": "SATREHRSKDQSQELTSRGL", "growth estimate": "< -0.25"}, {"substance": "AAWLPDTDPMGLAQIGSYAR", "growth estimate": "< -0.25"}, {"substance": "DRVHIYCRCHPR", "growth estimate": "< -0.25"}, {"substance": "PYVGRTEGYTPNRDIDPTRR", "growth estimate": "< -0.25"}, {"substance": "CRRVV", "growth estimate": "< -0.25"}, {"substance": "FPQWVVESGL", "growth estimate": "< -0.25"}, {"substance": "RSELVFRSANIWRRNVVIRG", "growth estimate": "< -0.25"}, {"substance": "GSQVSVDKDIDWWFTPG", "growth estimate": "< -0.25"}, {"substance": "FDYMRSELQN", "growth estimate": "< -0.25"}, {"substance": "EQPNN", "growth estimate": "< -0.25"}, {"substance": "KRWRR", "growth estimate": "< -0.25"}, {"substance": "VRMGSLIRSTMRLRAAT", "growth estimate": "< -0.25"}, {"substance": "AIGSWCGHYHTNTVCAVHVH", "growth estimate": "< -0.25"}, {"substance": "GGRGDGRESPFKQRVVPDPT", "growth estimate": "< -0.25"}, {"substance": "GHYVPLNV", "growth estimate": "< -0.25"}, {"substance": "YSPQIIYKGLDPESQR", "growth estimate": "< -0.25"}, {"substance": "SRVMATRSPFGGVFEGQTVL", "growth estimate": "< -0.25"}, {"substance": "YYVDTRSSRRTVDQWDLVYD", "growth estimate": -0.231}, {"substance": "GMLD", "growth estimate": "< -0.25"}, {"substance": "KSISTTVKEVD", "growth estimate": "< -0.25"}, {"substance": "YVWLTRPIA", "growth estimate": "< -0.25"}, {"substance": "LGIAAEGDMGRTETLKKWAA", "growth estimate": "< -0.25"}, {"substance": "INVVLLALGPNSGHSRSSRS", "growth estimate": "< -0.25"}, {"substance": "WLSWWEV", "growth estimate": -0.176}, {"substance": "KSGSDPYVTCAAYAWETFFV", "growth estimate": "< -0.25"}, {"substance": "THRVYTSASTAGVVSALAYL", "growth estimate": "< -0.25"}, {"substance": "AWSLPPRTSEG", "growth estimate": "< -0.25"}, {"substance": "QGMTLGESLKSGSVAVVHRE", "growth estimate": "< -0.25"}, {"substance": "AVGTRQSGRQLHCDT", "growth estimate": "< -0.25"}, {"substance": "WRGLHRSVYASLPGEMPIRP", "growth estimate": "< -0.25"}, {"substance": "ETGRIVACLKVRSAQWPYWV", "growth estimate": "< -0.25"}, {"substance": "NNVKSAPAPSWPRYGAGHCP", "growth estimate": "< -0.25"}, {"substance": "TASCERRGKFRLAVFDFRRL", "growth estimate": "< -0.25"}, {"substance": "RRERFIFECLNHSCTGSPGW", "growth estimate": "< -0.25"}, {"substance": "TSSSLERARMSGRRTPDVEE", "growth estimate": "< -0.25"}, {"substance": "APFFLWASYPIMVEVTFKYS", "growth estimate": "< -0.25"}, {"substance": "THTSRVHPRRAAAHHIRGFV", "growth estimate": "< -0.25"}, {"substance": "YVIDGAIVKGLRRTER", "growth estimate": "< -0.25"}, {"substance": "QVIACAR", "growth estimate": "< -0.25"}, {"substance": "WSTRGVAGPPRGNRMCSSGA", "growth estimate": "< -0.25"}, {"substance": "QVYRRI", "growth estimate": "< -0.25"}, {"substance": "VWRSANRNPAEARRQWSVVD", "growth estimate": -0.246}, {"substance": "PRDFTRRMLSF", "growth estimate": "< -0.25"}, {"substance": "VSVPFPIV", "growth estimate": "< -0.25"}, {"substance": "SCGRTESAIRHCGAQLRASS", "growth estimate": "< -0.25"}, {"substance": "EHPIRIVCASILFRSRVTPT", "growth estimate": "< -0.25"}, {"substance": "GTELV", "growth estimate": "< -0.25"}, {"substance": "DKGGG", "growth estimate": "< -0.25"}, {"substance": "RIRIRQLH", "growth estimate": "< -0.25"}, {"substance": "IALVPGFIYRSFVNLRPDVT", "growth estimate": "< -0.25"}, {"substance": "WSQKFYGGLGHIRSGLGHSF", "growth estimate": 2.22}, {"substance": "VTN", "growth estimate": "< -0.25"}, {"substance": "CSIICLWFSGRPLV", "growth estimate": "< -0.25"}, {"substance": "VCDLSGLMRS", "growth estimate": "< -0.25"}, {"substance": "SVNSAGLGGFGRKGASQVAM", "growth estimate": -0.243}, {"substance": "ARVGWDCYFR", "growth estimate": "< -0.25"}, {"substance": "VNCDGALLPTKPGQMNPARV", "growth estimate": "< -0.25"}, {"substance": "VSADNTKVCVHCVSSGVLSI", "growth estimate": "< -0.25"}, {"substance": "SNVPLFEISLPPRSLHGDRH", "growth estimate": "< -0.25"}, {"substance": "VMETGRTTPIGYPRSTINGA", "growth estimate": "< -0.25"}, {"substance": "SVR", "growth estimate": "< -0.25"}, {"substance": "RREEIYLRHCRQVRGDPRDL", "growth estimate": -0.25}, {"substance": "LGGSCAYPNLISPVSLGN", "growth estimate": "< -0.25"}, {"substance": "VPGTARCLCGSALCRRGQR", "growth estimate": "< -0.25"}, {"substance": "TGRA", "growth estimate": "< -0.25"}, {"substance": "WPNLQESAPRDVRLLGPPDT", "growth estimate": "< -0.25"}, {"substance": "QTG", "growth estimate": "< -0.25"}, {"substance": "ADEVGHYL", "growth estimate": "< -0.25"}, {"substance": "KSPCCRAYTRRFVHLCTLGW", "growth estimate": "< -0.25"}, {"substance": "WVVSTR", "growth estimate": "< -0.25"}, {"substance": "RPAVATLVSYDSLAEIVGTK", "growth estimate": -0.246}, {"substance": "FGDSQPRGLG", "growth estimate": "< -0.25"}, {"substance": "KTYRMTTPRGSDLGSL", "growth estimate": "< -0.25"}, {"substance": "VHE", "growth estimate": -0.0625}, {"substance": "RSSSSVPKRRHKRLSAENLS", "growth estimate": "< -0.25"}, {"substance": "QYSTFRIGSGGADNSIEHAL", "growth estimate": "< -0.25"}, {"substance": "NSYATVGRANQPLAILYTRT", "growth estimate": "< -0.25"}, {"substance": "FARAPKNYLGWFKGTLPKDA", "growth estimate": "< -0.25"}, {"substance": "PVKYCRPTRDTQKFEPR", "growth estimate": "< -0.25"}, {"substance": "VEGVGFLIARAI", "growth estimate": "< -0.25"}, {"substance": "IKGILALHGRLIDETENKWT", "growth estimate": "< -0.25"}, {"substance": "DYNRRLES", "growth estimate": "< -0.25"}, {"substance": "VQASDPAKPTVSF", "growth estimate": "< -0.25"}, {"substance": "QIRGSTLYIQPRSGVNSTA", "growth estimate": "< -0.25"}, {"substance": "VENGLNHRFWLRQDGRRNLE", "growth estimate": "< -0.25"}, {"substance": "PYRTDMIVYFRLLK", "growth estimate": "< -0.25"}, {"substance": "SWIRRSVSQF", "growth estimate": "< -0.25"}, {"substance": "SGMV", "growth estimate": "< -0.25"}, {"substance": "VMGLSGDGVGSTRYLELAPW", "growth estimate": "< -0.25"}, {"substance": "RMGRLSASGGATRLGLGDDV", "growth estimate": "< -0.25"}, {"substance": "ETKYGR", "growth estimate": "< -0.25"}, {"substance": "SSCVKCAGITCNVSRACEGL", "growth estimate": "< -0.25"}, {"substance": "VRTLASCGQRVWSSRIRGRS", "growth estimate": "< -0.25"}, {"substance": "VLGWRTSVDRRGAGIWGLSR", "growth estimate": "< -0.25"}, {"substance": "LCETAVTGVKHRLGDIVLES", "growth estimate": "< -0.25"}, {"substance": "EFPRFGPGMRNSGGHTT", "growth estimate": -0.231}, {"substance": "PSVLLPDGATY", "growth estimate": -0.192}, {"substance": "LLSRGKECTAGLV", "growth estimate": "< -0.25"}, {"substance": "PED", "growth estimate": "< -0.25"}, {"substance": "SSPTMGCAVMGVLRPARNQS", "growth estimate": "< -0.25"}, {"substance": "GHSGYRPMHRSSHNISCVRL", "growth estimate": "< -0.25"}, {"substance": "SNQWENGGLGAEP", "growth estimate": "< -0.25"}, {"substance": "SGWRSTAGVEN", "growth estimate": "< -0.25"}, {"substance": "SRPVESKACLSKNIRLNGRT", "growth estimate": "< -0.25"}, {"substance": "ERRMSMPLGGHMRFAYRP", "growth estimate": "< -0.25"}, {"substance": "SRRVGARHRAGGSAP", "growth estimate": "< -0.25"}, {"substance": "GKNS", "growth estimate": "< -0.25"}, {"substance": "IAPSSGDRAFFVIRG", "growth estimate": -0.25}, {"substance": "AGIQPQVDPGSGDPYNAELT", "growth estimate": "< -0.25"}, {"substance": "FTIHEVGGTKI", "growth estimate": "< -0.25"}, {"substance": "CQRQLHGRGQDRYYAIFLDP", "growth estimate": "< -0.25"}, {"substance": "YDRNGHHVQGVRRWSSVTEP", "growth estimate": "< -0.25"}, {"substance": "FSTRVTVSGFQILTAIRVW", "growth estimate": "< -0.25"}, {"substance": "IGRANLVVTLFFRMRYGCSF", "growth estimate": "< -0.25"}, {"substance": "TFYPDGWNVRCSSLPRFVLH", "growth estimate": "< -0.25"}, {"substance": "TNRLRVEPRPTPNGTLSLVH", "growth estimate": "< -0.25"}, {"substance": "FSPDIHVIAGARLGLSSPEE", "growth estimate": "< -0.25"}, {"substance": "SFRSSRS", "growth estimate": "< -0.25"}, {"substance": "IRGRFTRRVAV", "growth estimate": "< -0.25"}, {"substance": "RTSVSENPRVGRCAVQIAQR", "growth estimate": "< -0.25"}]}]}
